Paper doi:10.1101/2022.09.16.506679
These are yes or no findings as the source states them, for the method shown. Where a sequence is shown, tags or fusion partners need not be part of it.

Biological target: EL222 wild type (light-oxygen-voltage transcription factor from Erythrobacter litoralis) (Erythrobacter litoralis) (UniProt Q2NB98)
Experiment: SEC

binding: no binding
B1: EL222 wild type (light-oxygen-voltage transcription factor from Erythrobacter litoralis) (protein, UniProt Q2NB98 17-225)
chain: GADDTRVEVQPPAQWVLDLIEASPIASVVSDPRLADNPLIAINQAFTDLTGYSEEECVGRNCRFLAGSGTEPWLTDKIRQGVREHKPVLVEILNYKKDGTPFRNAVLVAPIYDDDDELLYFLGSQVEVDDDQPNMGMARRERAAEMLKTLSPRQLEVTTLVASGLRNKEVAARLGLSEKTVKMHRGLVMEKLNLKTSADLVRIAVEAGI
